One series has as its system biotinyl-Phe-oxazolone. The experiment in a line: self-aminoacylation, catalytic enhancement (BFO) (fold over background); higher = more active; k-Seq, kA / k0A0; sequences stand for … in GGGAAUGGAUCCACAUCUACGAAUUC…UUCACUGCAGACUUGACGAAGCUG
In outline: (§1)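 Mutagenized RNA pools with a 21-nt variable region (0.43 μM) were reacted with each biotinyl-aminoacyl-oxazolone at 2–1250 μM for 90 minutes at room temperature, in 50 μL HEPES/NaCl/KCl/MgCl2/CaCl2 buffer containing 5% acetonitrile at pH 6.9–7.0. RNA captured on streptavidin was quantified by triplicate qPCR and by Illumina sequencing. The fraction reacted for each sequence was fit to a pseudo-first-order model with bootstrapping, and catalytic enhancement is the median kA divided by the uncatalyzed rate, taken as the low-activity peak of a bimodal Gaussian fit.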

Another series deals with biotinyl-Trp-oxazolone. The experiment in a line: self-aminoacylation, catalytic enhancement (BWO) (fold over background); higher = more active; k-Seq, kA / k0A0; sequences stand for … in GGGAAUGGAUCCACAUCUACGAAUUC…UUCACUGCAGACUUGACGAAGCUG
The method, boiled down: as §1

A further series has as its system biotinyl-Met-oxazolone. The experiment in a line: self-aminoacylation, catalytic enhancement (BMO) (fold over background); higher = more active; k-Seq, kA / k0A0; sequences stand for … in GGGAAUGGAUCCACAUCUACGAAUUC…UUCACUGCAGACUUGACGAAGCUG
In outline:
as §1

The subject of the next series is biotinyl-Val-oxazolone. The series is described as follows: self-aminoacylation, catalytic enhancement (BVO) (fold over background); higher = more active; k-Seq, kA / k0A0; sequences stand for … in GGGAAUGGAUCCACAUCUACGAAUUC…UUCACUGCAGACUUGACGAAGCUG
In outline: as §1

A further series deals with biotinyl-Ile-oxazolone. The series is described as follows: self-aminoacylation, catalytic enhancement (BIO) (fold over background); higher = more active; k-Seq, kA / k0A0; sequences stand for … in GGGAAUGGAUCCACAUCUACGAAUUC…UUCACUGCAGACUUGACGAAGCUG
The method, boiled down: as §1

The subject of another series is biotinyl-Leu-oxazolone. The series is described as follows: self-aminoacylation, catalytic enhancement (BLO) (fold over background); higher = more active; k-Seq, kA / k0A0; sequences stand for … in GGGAAUGGAUCCACAUCUACGAAUUC…UUCACUGCAGACUUGACGAAGCUG
In outline:
as §1

This sample is rich in variants without activity.

In the case of “CUACUCCAAACAAUUGGUCUG [Fam1A.1 aminoacylation ribozyme variant]”, the self-aminoacylation turned out to be 0.67 in the series with biotinyl-Phe-oxazolone; 0.642 with biotinyl-Trp-oxazolone; 1.09 in the series with biotinyl-Met-oxazolone; 1.03 with biotinyl-Val-oxazolone; 1.13 with biotinyl-Ile-oxazolone; 1.02 with biotinyl-Leu-oxazolone.

In the case of “AUUUCCCUGGUCAUCGAGUAA [Fam2.1 aminoacylation ribozyme variant]”, the self-aminoacylation in the series on biotinyl-Phe-oxazolone stood at 3.9; in the series with biotinyl-Trp-oxazolone, 2.37; with biotinyl-Met-oxazolone it was 2.39; with biotinyl-Val-oxazolone, 1.83; with biotinyl-Ile-oxazolone it was 1.56; with biotinyl-Leu-oxazolone, 2.52.

For “AUUCACUUAGGUAAUCGGGUG [Fam2.2 aminoacylation ribozyme variant]”, the self-aminoacylation in the series with biotinyl-Phe-oxazolone is 19.6; with biotinyl-Trp-oxazolone, 2.72; in the series on biotinyl-Met-oxazolone it was 3.11; in the series with biotinyl-Val-oxazolone it was 1.97; in the series on biotinyl-Ile-oxazolone, 1.7; in the series with biotinyl-Leu-oxazolone, 3.33.

For “AAGUUUGCGAAUAGUCUCAAG [Fam3.1 aminoacylation ribozyme variant]”, the self-aminoacylation with biotinyl-Phe-oxazolone stood at 0.91; in the series with biotinyl-Trp-oxazolone, 0.798; in the series with biotinyl-Met-oxazolone it was 0.799; in the series on biotinyl-Val-oxazolone, 0.901; in the series on biotinyl-Ile-oxazolone it was 0.861; in the series on biotinyl-Leu-oxazolone, 0.878.

For the sequence “AAGUUUGCUGAUGGUCGCAAG [Fam3.1 aminoacylation ribozyme variant]”, the self-aminoacylation in the series on biotinyl-Phe-oxazolone was 0.8; in the series with biotinyl-Trp-oxazolone it was 0.79; in the series on biotinyl-Met-oxazolone, 0.894; in the series on biotinyl-Val-oxazolone, 0.691; in the series with biotinyl-Ile-oxazolone, 0.915; in the series with biotinyl-Leu-oxazolone, 0.787.

Regarding “CUACUUAAAACAAUUGGUCUG [Fam1A.1 aminoacylation ribozyme variant]”, the self-aminoacylation in the series with biotinyl-Phe-oxazolone turned out to be 0.548; in the series on biotinyl-Trp-oxazolone, 0.964; in the series with biotinyl-Met-oxazolone it was 1.15; in the series on biotinyl-Val-oxazolone it was 0.954; with biotinyl-Ile-oxazolone it was 1.1; with biotinyl-Leu-oxazolone, 1.01.

Take “CUACUUAAAAUAAUCGGUCUG [Fam1A.1 aminoacylation ribozyme variant]”: the self-aminoacylation is 0.751 with biotinyl-Phe-oxazolone; 0.696 with biotinyl-Trp-oxazolone; 0.705 with biotinyl-Met-oxazolone; 0.865 with biotinyl-Val-oxazolone; 0.891 with biotinyl-Ile-oxazolone; 0.769 with biotinyl-Leu-oxazolone.

“CUACAUCAAACAAUAGGUCUG [Fam1A.1 aminoacylation ribozyme variant]”: the self-aminoacylation stood at 1.38 in the series on biotinyl-Phe-oxazolone; 0.771 in the series with biotinyl-Trp-oxazolone; 1.18 with biotinyl-Met-oxazolone; 1.01 in the series with biotinyl-Val-oxazolone; 0.998 in the series on biotinyl-Ile-oxazolone; 0.832 in the series with biotinyl-Leu-oxazolone.

For the sequence “AUUCACCUAGGUGGUCGGGUG [Fam2.2 aminoacylation ribozyme variant]”, the self-aminoacylation in the series with biotinyl-Phe-oxazolone stood at 18.3; with biotinyl-Trp-oxazolone, 3.42; in the series on biotinyl-Met-oxazolone it was 2.41; in the series with biotinyl-Val-oxazolone, 2.77; with biotinyl-Ile-oxazolone, 2.49; in the series with biotinyl-Leu-oxazolone, 4.09.

Consider “AAGGUUGCUAAAAGUCGCAAG [Fam3.1 aminoacylation ribozyme variant]”, for which the self-aminoacylation turned out to be 4.28 with biotinyl-Phe-oxazolone; 1.93 in the series on biotinyl-Trp-oxazolone; 1.52 in the series with biotinyl-Met-oxazolone; 1.67 with biotinyl-Val-oxazolone; 1.62 in the series with biotinyl-Ile-oxazolone; 1.6 with biotinyl-Leu-oxazolone.

Consider “CCAUACUUCAAGCAAUUGGUC [Fam1B.1 aminoacylation ribozyme variant]”, for which the self-aminoacylation is 1.13 in the series on biotinyl-Phe-oxazolone; 0.625 in the series on biotinyl-Trp-oxazolone; 0.689 in the series on biotinyl-Met-oxazolone; 0.762 in the series on biotinyl-Val-oxazolone; 0.743 with biotinyl-Ile-oxazolone; 0.667 in the series with biotinyl-Leu-oxazolone.

For “AUUACCCUCGUCCUCGAGUGA [Fam2.1 aminoacylation ribozyme variant]”, the self-aminoacylation in the series on biotinyl-Phe-oxazolone amounted to 34.7; in the series on biotinyl-Trp-oxazolone, 6.18; with biotinyl-Met-oxazolone it was 4.67; in the series on biotinyl-Val-oxazolone, 2.4; with biotinyl-Ile-oxazolone it was 2.48; in the series on biotinyl-Leu-oxazolone it was 5.49.

Consider “CCACACUUCAACCAGUCGGUC [Fam1B.1 aminoacylation ribozyme variant]”, for which the self-aminoacylation in the series with biotinyl-Phe-oxazolone stood at 0.67; in the series on biotinyl-Trp-oxazolone, 1.16; in the series on biotinyl-Met-oxazolone it was 1.04; in the series on biotinyl-Val-oxazolone, 1.1; in the series on biotinyl-Ile-oxazolone, 1.01; in the series with biotinyl-Leu-oxazolone, 1.21.

With “CUACUUCAAACAAUCUGUCUG [Fam1A.1 aminoacylation ribozyme variant]”, the self-aminoacylation in the series on biotinyl-Phe-oxazolone is 3.23; with biotinyl-Trp-oxazolone, 1.45; in the series with biotinyl-Met-oxazolone, 0.579; with biotinyl-Val-oxazolone it was 0.717; in the series on biotinyl-Ile-oxazolone, 0.699; with biotinyl-Leu-oxazolone, 0.585.

For “CCACAGUUGAAGCAAUCGGUC [Fam1B.1 aminoacylation ribozyme variant]”, the self-aminoacylation with biotinyl-Phe-oxazolone came to 0.817; with biotinyl-Trp-oxazolone, 0.923; in the series with biotinyl-Met-oxazolone it was 1; with biotinyl-Val-oxazolone it was 0.908; in the series with biotinyl-Ile-oxazolone, 0.998; in the series on biotinyl-Leu-oxazolone, 0.999.

As for “AUUCACCUAGGUCACCGUGUG [Fam2.2 aminoacylation ribozyme variant]”, the self-aminoacylation with biotinyl-Phe-oxazolone was found to be 4.55; in the series with biotinyl-Trp-oxazolone it was 1.24; with biotinyl-Met-oxazolone it was 1.33; in the series with biotinyl-Val-oxazolone, 1.33; with biotinyl-Ile-oxazolone, 1.13; in the series on biotinyl-Leu-oxazolone, 1.48.

“CCACACUUCAAGUAAUUGGUC [Fam1B.1 aminoacylation ribozyme variant]”: the self-aminoacylation in the series with biotinyl-Phe-oxazolone stood at 0.948; with biotinyl-Trp-oxazolone, 0.863; in the series on biotinyl-Met-oxazolone, 0.713; in the series with biotinyl-Val-oxazolone, 0.664; with biotinyl-Ile-oxazolone it was 0.643; in the series on biotinyl-Leu-oxazolone, 0.606.

As for “AAUACCCUGGUCAUCGAUUGA [Fam2.1 aminoacylation ribozyme variant]”, the self-aminoacylation in the series on biotinyl-Phe-oxazolone amounted to 0.409; in the series on biotinyl-Trp-oxazolone it was 0.661; with biotinyl-Met-oxazolone, 0.743; in the series on biotinyl-Val-oxazolone it was 0.979; with biotinyl-Ile-oxazolone, 0.971; in the series on biotinyl-Leu-oxazolone it was 0.966.

Turning to “AUUUACGUAGGUCAUCGGGUG [Fam2.2 aminoacylation ribozyme variant]”, the self-aminoacylation was 25.2 in the series on biotinyl-Phe-oxazolone; 3.64 in the series on biotinyl-Trp-oxazolone; 3.99 with biotinyl-Met-oxazolone; 3.38 in the series with biotinyl-Val-oxazolone; 2.88 in the series with biotinyl-Ile-oxazolone; 3.68 with biotinyl-Leu-oxazolone.

“CUACUUCAUGCAAUCGGUCUG [Fam1A.1 aminoacylation ribozyme variant]”: the self-aminoacylation was determined as 1.11 in the series on biotinyl-Phe-oxazolone; 0.712 in the series on biotinyl-Trp-oxazolone; 0.765 in the series on biotinyl-Met-oxazolone; 0.873 in the series on biotinyl-Val-oxazolone; 0.803 with biotinyl-Ile-oxazolone; 0.804 in the series on biotinyl-Leu-oxazolone.

Consider “CCUCACUUCAAGCUAUCGGUC [Fam1B.1 aminoacylation ribozyme variant]”, for which the self-aminoacylation amounted to 1.21 in the series with biotinyl-Phe-oxazolone; 0.822 in the series with biotinyl-Trp-oxazolone; 0.562 with biotinyl-Met-oxazolone; 0.856 with biotinyl-Val-oxazolone; 0.785 in the series on biotinyl-Ile-oxazolone; 0.715 in the series with biotinyl-Leu-oxazolone.

For “AUUCACCAAGGUCAUCGGGUA [Fam2.2 aminoacylation ribozyme variant]”, the self-aminoacylation in the series on biotinyl-Phe-oxazolone was determined as 22.5; in the series with biotinyl-Trp-oxazolone, 4.89; with biotinyl-Met-oxazolone, 2.43; with biotinyl-Val-oxazolone, 3.04; in the series with biotinyl-Ile-oxazolone it was 3.77; in the series with biotinyl-Leu-oxazolone, 3.23.

Consider “AAAUUUGCGAAUAGUCGCAAG [Fam3.1 aminoacylation ribozyme variant]”, for which the self-aminoacylation turned out to be 1.99 in the series on biotinyl-Phe-oxazolone; 1.54 with biotinyl-Trp-oxazolone; 1.59 in the series with biotinyl-Met-oxazolone; 1.56 with biotinyl-Val-oxazolone; 1.71 in the series with biotinyl-Ile-oxazolone; 1.33 in the series with biotinyl-Leu-oxazolone.
